Results are given in words; binding and its absence hold for the method and conditions named. Binding seen in cells or lysates may run through a third protein. Some entries that bind do so weakly or less than the wild type.

The chains behind the UniProt entries cited, without tags or fusion partners. Residues count along the entry.
UniProt Q8R4B8: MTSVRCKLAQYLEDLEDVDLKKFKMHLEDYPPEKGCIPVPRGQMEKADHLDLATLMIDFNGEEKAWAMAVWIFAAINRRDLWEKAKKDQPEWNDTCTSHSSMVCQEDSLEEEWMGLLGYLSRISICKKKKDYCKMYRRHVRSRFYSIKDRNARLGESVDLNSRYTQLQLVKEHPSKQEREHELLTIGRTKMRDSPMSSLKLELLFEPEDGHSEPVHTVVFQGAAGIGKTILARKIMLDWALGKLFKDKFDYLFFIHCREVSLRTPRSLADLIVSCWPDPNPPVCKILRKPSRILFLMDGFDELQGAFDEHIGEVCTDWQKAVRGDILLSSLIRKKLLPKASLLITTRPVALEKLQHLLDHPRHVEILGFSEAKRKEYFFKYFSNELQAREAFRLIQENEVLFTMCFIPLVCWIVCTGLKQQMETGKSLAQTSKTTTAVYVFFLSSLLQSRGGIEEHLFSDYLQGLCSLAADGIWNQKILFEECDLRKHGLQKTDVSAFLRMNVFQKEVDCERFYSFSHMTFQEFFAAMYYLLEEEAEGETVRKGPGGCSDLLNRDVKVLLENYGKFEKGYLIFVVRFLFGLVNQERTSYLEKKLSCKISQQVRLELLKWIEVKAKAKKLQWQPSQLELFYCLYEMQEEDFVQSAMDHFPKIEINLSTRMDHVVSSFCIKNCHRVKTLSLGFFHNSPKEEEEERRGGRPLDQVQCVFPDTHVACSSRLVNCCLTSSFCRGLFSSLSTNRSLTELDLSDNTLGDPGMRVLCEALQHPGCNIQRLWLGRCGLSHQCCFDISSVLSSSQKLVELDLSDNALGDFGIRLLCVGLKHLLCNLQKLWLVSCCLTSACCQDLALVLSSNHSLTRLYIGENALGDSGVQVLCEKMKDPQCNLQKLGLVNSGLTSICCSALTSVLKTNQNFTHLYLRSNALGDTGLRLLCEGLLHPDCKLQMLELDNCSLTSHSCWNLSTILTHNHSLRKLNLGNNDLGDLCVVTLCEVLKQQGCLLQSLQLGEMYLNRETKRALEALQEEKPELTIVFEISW
UniProt Q9EQY0, residues 21-977: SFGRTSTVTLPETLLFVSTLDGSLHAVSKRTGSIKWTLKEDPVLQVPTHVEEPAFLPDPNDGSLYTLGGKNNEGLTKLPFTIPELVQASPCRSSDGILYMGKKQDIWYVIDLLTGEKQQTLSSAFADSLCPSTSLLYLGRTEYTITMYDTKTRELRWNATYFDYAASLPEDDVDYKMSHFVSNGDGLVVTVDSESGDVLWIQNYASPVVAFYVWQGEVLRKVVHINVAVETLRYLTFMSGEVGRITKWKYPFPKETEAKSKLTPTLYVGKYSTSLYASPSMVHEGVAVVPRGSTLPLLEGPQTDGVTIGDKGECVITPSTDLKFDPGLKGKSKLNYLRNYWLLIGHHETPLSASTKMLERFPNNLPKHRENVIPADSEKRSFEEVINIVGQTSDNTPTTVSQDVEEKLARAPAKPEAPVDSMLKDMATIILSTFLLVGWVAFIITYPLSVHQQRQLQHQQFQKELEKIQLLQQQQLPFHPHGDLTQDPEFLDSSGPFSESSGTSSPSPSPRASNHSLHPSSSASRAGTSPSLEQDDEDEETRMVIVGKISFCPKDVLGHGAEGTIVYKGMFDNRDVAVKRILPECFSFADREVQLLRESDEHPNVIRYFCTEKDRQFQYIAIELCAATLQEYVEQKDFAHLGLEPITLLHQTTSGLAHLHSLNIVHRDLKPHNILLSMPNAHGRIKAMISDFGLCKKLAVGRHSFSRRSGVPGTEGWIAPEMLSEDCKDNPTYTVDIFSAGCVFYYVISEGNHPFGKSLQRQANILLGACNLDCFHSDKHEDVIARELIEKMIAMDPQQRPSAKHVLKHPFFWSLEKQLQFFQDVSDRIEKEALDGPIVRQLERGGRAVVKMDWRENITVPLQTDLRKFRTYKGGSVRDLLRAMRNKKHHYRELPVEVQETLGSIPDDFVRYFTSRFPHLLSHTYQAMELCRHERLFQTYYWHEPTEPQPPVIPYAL

The target of test [1] is T1, thioredoxin interacting protein (mouse (endogenous in lung tissue)) (UniProt Q8BG60).
T1 sequence: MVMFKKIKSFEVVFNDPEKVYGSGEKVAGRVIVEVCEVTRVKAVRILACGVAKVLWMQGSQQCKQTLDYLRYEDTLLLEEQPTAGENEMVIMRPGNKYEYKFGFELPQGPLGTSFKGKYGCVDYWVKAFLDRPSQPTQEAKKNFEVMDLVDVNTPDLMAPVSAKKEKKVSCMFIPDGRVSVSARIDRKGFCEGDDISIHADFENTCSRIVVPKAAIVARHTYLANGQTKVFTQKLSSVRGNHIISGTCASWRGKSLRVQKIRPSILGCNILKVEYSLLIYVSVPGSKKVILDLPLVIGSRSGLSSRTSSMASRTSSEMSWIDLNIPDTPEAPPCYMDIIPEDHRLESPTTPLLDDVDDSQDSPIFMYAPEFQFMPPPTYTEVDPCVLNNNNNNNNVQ
The experiment in a line: co-IP; mouse lung tissue lysates (saline, A. fumigatus, A. fumigatus + IC87114, A. fumigatus + 4-PBA); lysis in 50 mM Tris-HCl pH 8.0, 150 mM NaCl, 1 mM DTT, 1 mM EDTA, 1% deoxycholate, 1% Triton X-100, 1% SDS, then diluted; antibody 1:100 overnight, protein A/G-Sepharose 2 hr; immunoblot. (In western blotting, separated proteins are transferred to a membrane and probed.)

For test [2], the target named is NOD‐like receptor protein (NLRP3), mouse lung (mouse (endogenous in lung tissue)) (UniProt Q8R4B8). The experiment in a line: condition: only A. fumigatus-challenged mice treated with IC87114 or 4-PBA; co-IP; mouse lung tissue lysates of A. fumigatus-challenged mice treated with 1 mg/kg IC87114 or 80 mg/kg 4-PBA; immunoprecipitated with anti-NLRP3, immunoblotted for ASC and caspase-1.

The target is the same in test [3]. The test can be described thus: co-IP; mouse lung tissue lysates (saline, A. fumigatus, A. fumigatus + IC87114, A. fumigatus + 4-PBA); lysis in 50 mM Tris-HCl pH 8.0, 150 mM NaCl, 1 mM DTT, 1 mM EDTA, 1% deoxycholate, 1% Triton X-100, 1% SDS, then diluted; antibody 1:100 overnight, protein A/G-Sepharose 2 hr; immunoblot.
For test [4], the target named is inositol‐requiring transmembrane kinase/endoribonuclease 1α (mouse (endogenous in lung tissue)) (UniProt Q9EQY0). The test can be described thus: condition: only A. fumigatus-challenged mice without IC87114 or 4-PBA; co-IP; mouse lung tissue lysates of A. fumigatus-challenged mice without drug; immunoprecipitated with anti-IRE1α, immunoblotted with anti-PDIA6.
For test [5] the target is unchanged. The test can be described thus: co-IP; mouse lung tissue lysates (saline, A. fumigatus, A. fumigatus + IC87114, A. fumigatus + 4-PBA); lysis in 50 mM Tris-HCl pH 8.0, 150 mM NaCl, 1 mM DTT, 1 mM EDTA, 1% deoxycholate, 1% Triton X-100, 1% SDS, then diluted; antibody 1:100 overnight, protein A/G-Sepharose 2 hr; immunoblot.

“NOD‐like receptor protein (NLRP3), mouse lung (from UniProt Q8R4B8 1-1033)”: the binding result in test [1] is “binds”.

B1: caspase‐1, mouse lung (protein, UniProt P29452 1-402)
chain: MADKILRAKRKQFINSVSIGTINGLLDELLEKRVLNQEEMDKIKLANITAMDKARDLCDHVSKKGPQASQIFITYICNEDCYLAGILELQSAPSAETFVATEDSKGGHPSSSETKEEQNKEDGTFPGLTGTLKFCPLEKAQKLWKENPSEIYPIMNTTTRTRLALIICNTEFQHLSPRVGAQVDLREMKLLLEDLGYTVKVKENLTALEMVKEVKEFAACPEHKTSDSTFLVFMSHGIQEGICGTTYSNEVSDILKVDTIFQMMNTLKCPSLKDKPKVIIIQACRGEKQGVVLLKDSVRDSEEDFLTDAIFEDDGIKKAHIEKDFIAFCSSTPDNVSWRHPVRGSLFIESLIKHMKEYAWSCDLEDIFRKVRFSFEQPEFRLQMPTADRVTLTKRFYLFPGH
With B1, the binding entry in test [2] was “no binding”; in test [3], “binds”.

B2: protein disulfide isomerase family A member (PDIA)6 (protein, UniProt Q922R8 20-440)
chain: LYSSSDDVIELTPSNFNREVIQSDGLWLVEFYAPWCGHCQRLTPEWKKAATALKDVVKVGAVNADKHQSLGGQYGVQGFPTIKIFGANKNKPEDYQGGRTGEAIVDAALSALRQLVKDRLGGRSGGYSSGKQGRGDSSSKKDVVELTDDTFDKNVLDSEDVWMVEFYAPWCGHCKNLEPEWAAAATEVKEQTKGKVKLAAVDATVNQVLASRYGIKGFPTIKIFQKGESPVDYDGGRTRSDIVSRALDLFSDNAPPPELLEIINEDIAKKTCEEHQLCVVAVLPHILDTGAAGRNSYLEVLLKLADKYKKKMWGWLWTEAGAQYELENALGIGGFGYPAMAAINARKMKFALLKGSFSEQGINEFLRELSFGRGSTAPVGGGSFPTITPREPWDGKDGELPVEDDIDLSDVELDDLEKDEL
For the molecule B2, the figures for the binding result in test [4] and in test [5] were “no binding” and “binds”, respectively.

These data come from article PMC7060358.
